Reference: PubChem BioAssay AID248 (DTP/NCI, 2004)
The list shows only some results of the screen, not a fair sample: it is rich in T/C values a quarter to a half above the control, in often repeated tests (any T/C) and in doses without a T/C. Other doses and runs of a compound stand elsewhere. T/C is the treated group as % of the vehicle group. Some doses have a count of surviving animals in place of a T/C: the source files T/C as zero there, which appears to mark a toxic dose or a test without result, not a measured value. Some doses without a T/C left all or most animals alive at the check, yet need not have been tolerated: survival well below the control is almost never listed, so the zero probably covers shortened survival too. Survivors were counted at the toxicity check, usually on the fifth day, unless a day is given; later deaths do not show. Schedules are NCI's codes, read here as Q, the interval in days (D) or hours (H), X, the number of doses. Some schedule codes hold Z or #, which are not explained here. Some doses were run more than once; their values stand side by side, smallest first. For survival time, this PubChem deposit counts one and a half times the control or more as active, and values a quarter to a half above the control carry no call in these data; other NCI protocols may use other cut-offs. Some T/C values carry the count of animals alive at the toxicity check (mostly the fifth day); without a count, all were alive then.

Tested on: L1210 leukemia ip in BDF1 mice, survival T/C
Test: NCI In Vivo Anticancer Drug Screen. Data for tumor model L1210 Leukemia (intraperitoneal) in B6D2F1 (BDF1) mice
Conditions: higher T/C = longer survival
[1] = T/C endpoint: mean survival time, dose: 100.0 mg/kg/injection, schedule: Q01DX009 (ip), vehicle: saline
[2] = T/C endpoint: mean survival time, dose: 400.0 mg/kg/injection, schedule: Q01DX001 (ip), vehicle: saline
[3] = T/C endpoint: mean survival time, dose: 400.0 mg/kg/injection, schedule: Q01DX009 (ip), vehicle: saline
[4] = T/C endpoint: mean survival time, dose: 100.0 mg/kg/injection, schedule: Q01DX009 (ip), vehicle: saline with Tween-80
[5] = T/C endpoint: mean survival time, dose: 200.0 mg/kg/injection, schedule: Q01DX009 (ip), vehicle: saline with Tween-80
[6] = T/C endpoint: mean survival time, dose: 400.0 mg/kg/injection, schedule: Q01DX009 (ip), vehicle: saline with Tween-80
[7] = T/C endpoint: mean survival time, dose: 8.0 mg/kg/injection, schedule: Q01DX001 (ip), vehicle: carboxymethylcellulose (CMC)
[8] = T/C endpoint: mean survival time, dose: 200.0 mg/kg/injection, schedule: Q01DX009 (ip), vehicle: Klucel (hydroxypropylcellulose) (HPC)
[9] = T/C endpoint: mean survival time, dose: 60.0 mg/kg/injection, schedule: Q01DX Z (oral), vehicle: methylcellulose (MC)
[10] = T/C endpoint: mean survival time, dose: 200.0 mg/kg/injection, schedule: Q01DX009 (ip), vehicle: saline

With `COc1ccccc1NC(=S)N(C)C` the survivor count (T/C endpoint: mean survival time, dose: 400.0 mg/kg/injection, schedule: Q04DX003 (ip), vehicle: saline with Tween-80) was 0 of 6.

With `O=S(=O)(O)O.[N-]=C(N)/N=C(\[NH-])N.[N-]=C(N)/N=C(\[NH-])N.[N-]=C(N)NC(=[N-])N.[Rh+3]` the survivor count [1] was 0 of 6.

With `CCC1(OC(C)=O)C(=O)OCc2c1cc1n(c2=O)Cc2cc3ccccc3nc2-1` (stereo unspecified) the T/C (T/C endpoint: mean survival time, dose: 0.6 mg/kg/injection, schedule: Q01DX Z (ip), vehicle: water) was 128 % of control.

In the case of `Cc1ncc(CO)c(C)c1O`, the T/C (T/C endpoint: mean survival time, dose: 0.1 mg/kg/injection, schedule: Q02DX010 (ip), vehicle: saline) is reported as 125 % of control, the survivor count [2] is reported as 0 of 6 and the survivor count [3] is reported as 0 of 6. The survivor count (T/C endpoint: mean survival time, dose: 800.0 mg/kg/injection, schedule: Q01DX001 (ip), vehicle: saline) was 0 of 6, the survivor count (T/C endpoint: mean survival time, dose: 800.0 mg/kg/injection, schedule: Q01DX009 (ip), vehicle: saline) was 0 of 6 and the survivor count (T/C endpoint: mean survival time, dose: 1200.0 mg/kg/injection, schedule: Q01DX001 (ip), vehicle: saline) was 0 of 6. For the same compound, the survivor count (T/C endpoint: mean survival time, dose: 1600.0 mg/kg/injection, schedule: Q01DX001 (ip), vehicle: saline) was 0 of 6.

For `CC(=O)Oc1cc2c3c(c1)CCCN3CCC2`, the survivor count [4] was 2 of 6, the survivor count [5] was 1 of 6 and the survivor count [6] was 1 of 6.

`COc1cc([C@@H]2c3cc4c(c(O)c3C[C@H]3COC(=O)[C@@H]32)OCO4)cc(OC)c1O` was tested, and the survivor count (T/C endpoint: mean survival time, dose: 1.0 mg/kg/injection, schedule: Q01DX Z (ip), vehicle: saline) was 4 of 7, the survivor count (T/C endpoint: mean survival time, dose: 3.6 mg/kg/injection, schedule: Q01DX001 (ip), vehicle: carboxymethylcellulose (CMC)) was 0 of 4 and the survivor count (T/C endpoint: mean survival time, dose: 5.3 mg/kg/injection, schedule: Q01DX001 (ip), vehicle: carboxymethylcellulose (CMC)) was 1 of 4. The T/C [7] was 136 % of control [3 of 4 alive], the survivor count [7] was 0 of 4 and the survivor count (T/C endpoint: mean survival time, dose: 12.0 mg/kg/injection, schedule: Q01DX001 (ip), vehicle: carboxymethylcellulose (CMC)) was 1 of 4 and 4 of 4. The survivor count (T/C endpoint: median survival time, dose: 1.0 mg/kg/injection, schedule: Q01DX009 (ip), vehicle: Klucel (hydroxypropylcellulose) (HPC)) was 4 of 8.

With `Cc1c(Cl)cccc1NC(=O)Nc1ccccc1F` the survivor count (T/C endpoint: mean survival time, dose: 100.0 mg/kg/injection, schedule: Q01DX009 (ip), vehicle: Klucel (hydroxypropylcellulose) (HPC)) was 6 of 6, the survivor count [8] was 6 of 6 and the survivor count (T/C endpoint: mean survival time, dose: 400.0 mg/kg/injection, schedule: Q01DX009 (ip), vehicle: Klucel (hydroxypropylcellulose) (HPC)) was 6 of 6.

In the case of `CSc1nnc(N)s1`, the T/C (T/C endpoint: mean survival time, dose: 400.0 mg/kg/injection, schedule: Q04DX002 (ip), vehicle: Klucel (hydroxypropylcellulose) (HPC)) is reported as 146 % of control.

With `CC(/C=N/N=C(N(C)C)N(C)C)=N/N=C(N(C)C)N(C)C` the survivor count [9] was 3 of 6, the survivor count (T/C endpoint: mean survival time, dose: 120.0 mg/kg/injection, schedule: Q01DX Z (oral), vehicle: methylcellulose (MC)) was 3 of 6 and 5 of 6 and the survivor count (T/C endpoint: mean survival time, dose: 240.0 mg/kg/injection, schedule: Q01DX Z (oral), vehicle: methylcellulose (MC)) was 2 of 6 and 3 of 6. The survivor count (T/C endpoint: mean survival time, dose: 250.0 mg/kg/injection, schedule: Q01DX Z (ip), vehicle: methylcellulose (MC)) was 0 of 6, the survivor count (T/C endpoint: mean survival time, dose: 375.0 mg/kg/injection, schedule: Q01DX Z (ip), vehicle: methylcellulose (MC)) was 0 of 6 and the survivor count (T/C endpoint: mean survival time, dose: 480.0 mg/kg/injection, schedule: Q01DX Z (oral), vehicle: methylcellulose (MC)) was 0 of 6. For the same compound, the survivor count (T/C endpoint: mean survival time, dose: 500.0 mg/kg/injection, schedule: Q01DX Z (ip), vehicle: methylcellulose (MC)) was 0 of 6.

For `O=C(NCCCCNC(=O)Nc1ccc(C2=NCCN2)cc1)Nc1ccc(C2=NCCN2)cc1`, the T/C (T/C endpoint: mean survival time, dose: 62.0 mg/kg/injection, schedule: Q01DX Z (ip), vehicle: carboxymethylcellulose (CMC)) was 129 % of control, the survivor count (T/C endpoint: mean survival time, dose: 250.0 mg/kg/injection, schedule: Q01DX Z (ip), vehicle: carboxymethylcellulose (CMC)) was 4 of 6 and the survivor count (T/C endpoint: mean survival time, dose: 500.0 mg/kg/injection, schedule: Q01DX Z (ip), vehicle: carboxymethylcellulose (CMC)) was 1 of 6.

In the case of `CS(=O)(=O)OCCC#N`, the survivor count [10] is reported as 3 of 6 and the survivor count (T/C endpoint: mean survival time, dose: 400.0 mg/kg/injection, schedule: Q04DX003 (ip), vehicle: alcohol) is reported as 0 of 6.

With `CC(=O)OC1OC2COC(C)(C)OCC2C(OC(C)=O)C1OC(C)=O` (stereo unspecified) the survivor count (T/C endpoint: mean survival time, dose: 400.0 mg/kg/injection, schedule: Q01DX001 (ip), vehicle: saline with Tween-80) was 3 of 3.

For `Cc1cc(C)c(F)[c]([Hg][Br])c1N`, the survivor count (T/C endpoint: mean survival time, dose: 25.0 mg/kg/injection, schedule: Q01DX009 (ip), vehicle: Klucel (hydroxypropylcellulose) (HPC)) was 0 of 3, the survivor count (T/C endpoint: mean survival time, dose: 50.0 mg/kg/injection, schedule: Q01DX009 (ip), vehicle: Klucel (hydroxypropylcellulose) (HPC)) was 0 of 3 and the survivor count (T/C endpoint: mean survival time, dose: 75.0 mg/kg/injection, schedule: Q01DX001 (ip), vehicle: Klucel (hydroxypropylcellulose) (HPC)) was 0 of 6. The survivor count (T/C endpoint: mean survival time, dose: 150.0 mg/kg/injection, schedule: Q01DX001 (ip), vehicle: Klucel (hydroxypropylcellulose) (HPC)) was 0 of 6 and the survivor count [8] was 0 of 3.

In the case of `CC(=O)c1ccc2cc(O)ccc2c1`, the survivor count [1] is reported as 3 of 6, the survivor count [10] is reported as 2 of 6 and the survivor count [3] is reported as 1 of 6.

With `O=C(Nc1cccc(Cl)c1)Oc1ccc(Cl)cc1Cl` the survivor count (T/C endpoint: mean survival time, dose: 400.0 mg/kg/injection, schedule: Q04DX002 (ip), vehicle: saline with Tween-80) was 0 of 3.

For `CCOC(=O)NNC(=O)OCC`, the survivor count (T/C endpoint: mean survival time, dose: 50.0 mg/kg/injection, schedule: Q01DX009 (ip), vehicle: saline with Tween-80) was 3 of 3, the survivor count [4] was 1 of 3 and the survivor count (T/C endpoint: mean survival time, dose: 100.0 mg/kg/injection, schedule: Q04DX003 (ip), vehicle: Klucel (hydroxypropylcellulose) (HPC)) was 3 of 6. For the same compound, the survivor count [5] was 0 of 3 and 0 of 6, the survivor count (T/C endpoint: mean survival time, dose: 200.0 mg/kg/injection, schedule: Q04DX003 (ip), vehicle: Klucel (hydroxypropylcellulose) (HPC)) was 0 of 6 and the survivor count (T/C endpoint: mean survival time, dose: 300.0 mg/kg/injection, schedule: Q01DX001 (ip), vehicle: acetone) was 2 of 6. For the same compound, the survivor count (T/C endpoint: mean survival time, dose: 400.0 mg/kg/injection, schedule: Q04DX003 (ip), vehicle: Klucel (hydroxypropylcellulose) (HPC)) was 0 of 6.

With `CC(C/C=N/N1CCCCC1)Nc1ccnc2cc(Cl)ccc12` (stereo unspecified) the survivor count (T/C endpoint: mean survival time, dose: 6.25 mg/kg/injection, schedule: Q01DX009 (ip), vehicle: saline with Tween-80) was 6 of 6, the survivor count (T/C endpoint: mean survival time, dose: 12.5 mg/kg/injection, schedule: Q01DX009 (ip), vehicle: saline with Tween-80) was 0 of 6 and the survivor count (T/C endpoint: mean survival time, dose: 25.0 mg/kg/injection, schedule: Q01DX009 (ip), vehicle: saline with Tween-80) was 0 of 6. The survivor count [4] was 0 of 6, the survivor count [5] was 0 of 6 and the survivor count [6] was 0 of 6.

`CC1=NN(c2ccccc2)/C(=N/N=C(N)N)C1CC1C(C)=NN(c2ccccc2)/C1=N/N=C(N)N` (stereo unspecified) was tested, and the survivor count (T/C endpoint: mean survival time, dose: 480.0 mg/kg/injection, schedule: Q01DX Z (ip), vehicle: carboxymethylcellulose (CMC)) was 4 of 6.

With `NC(N)=N/N=C(/C(=N\N=C(N)N)c1ccco1)c1ccco1` the survivor count (T/C endpoint: mean survival time, dose: 30.0 mg/kg/injection, schedule: Q01DX Z (ip), vehicle: methylcellulose (MC)) was 0 of 6, the survivor count (T/C endpoint: mean survival time, dose: 60.0 mg/kg/injection, schedule: Q01DX Z (ip), vehicle: methylcellulose (MC)) was 0 of 6 and the survivor count [9] was 0 of 6. For the same compound, the survivor count (T/C endpoint: mean survival time, dose: 120.0 mg/kg/injection, schedule: Q01DX Z (ip), vehicle: methylcellulose (MC)) was 0 of 6.

`O=C1C=C(O)c2[nH]c(=O)ccc2C1=O` was tested, and the survivor count (T/C endpoint: mean survival time, dose: 80.0 mg/kg/injection, schedule: Q01DX001 (ip), vehicle: saline) was 1 of 4, the survivor count (T/C endpoint: mean survival time, dose: 100.0 mg/kg/injection, schedule: Q01DX001 (ip), vehicle: saline) was 0 of 4 and the survivor count (T/C endpoint: mean survival time, dose: 200.0 mg/kg/injection, schedule: Q01DX001 (ip), vehicle: saline) was 0 of 4. The survivor count [2] was 0 of 4.

With `CC(C)NCC(O)c1cccc(O)c1` (stereo unspecified) the survivor count [2] was 1 of 6.

With `O=C1NC2(C=CC(Br)CC2)C(=O)C12CCCCC2` (stereo unspecified) (tested in a mixture with another compound) the survivor count (T/C endpoint: mean survival time, dose: 75.0 mg/kg/injection, schedule: Q01DX001 (ip), vehicle: saline) was 6 of 6 and the survivor count (T/C endpoint: mean survival time, dose: 300.0 mg/kg/injection, schedule: Q01DX001 (ip), vehicle: saline) was 6 of 6.
